Assay results: the supplement of paper PMC3334620
Whole data set: some 33,000 sequences, median “E-score (-0.5 to 0.5)” near -8e-05, cut for the highest 2% near 0.23. Some of the results follow.

Each sequence was assayed against T1, Nrg2 (UniProt P38082) (assay: PBM E-score (8-mer binding enrichment) (E-score (-0.5 to 0.5)); higher = stronger / more preferred TF binding). Settings: protein concentration: 100 nM; construct: GST-full length.
T1 sequence: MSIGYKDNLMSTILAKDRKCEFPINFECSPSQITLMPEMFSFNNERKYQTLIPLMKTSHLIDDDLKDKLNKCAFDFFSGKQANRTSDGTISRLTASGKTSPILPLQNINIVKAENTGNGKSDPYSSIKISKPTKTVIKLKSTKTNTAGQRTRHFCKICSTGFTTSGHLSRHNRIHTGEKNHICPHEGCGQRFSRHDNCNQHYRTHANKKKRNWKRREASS
Method: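 Universal 'all 10-mer' protein binding microarrays (Agilent AMADID 015681) probed with GST-tagged S. cerevisiae TFs (full-length or DBD) made by in vitro transcription/translation (PURExpress), about 100-200 nM. Bound TF was detected with fluorescent anti-GST. Each ungapped 8-mer (which stands for itself and its reverse complement) is scored by the PBM enrichment score (E-score), a modified Wilcoxon-Mann-Whitney statistic from -0.5 to +0.5, computed with the Universal PBM Analysis Suite. Scale: above 0.35 generally sequence-specific binding.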

| Sequence | PBM E-score |
| --- | --- |
| CTCTTCTC | -0.215 |
| CCCAGGCG | -0.0427 |
| ACCATAAT | 0.049 |
| CATGTTTA | -0.0481 |
| ACGGATAG | 0.154 |
| GGAACTGA | -0.0433 |
| CGCTTCTC | -0.102 |
| GACTAATA | 0.0323 |
| CCAGAGCC | -0.0415 |
| ATGTAAGG | -0.0925 |
| CAGCGTCG | 0.0819 |
| ACGGCCGA | 0.0931 |
| ACCTGTCC | -0.139 |
| CTGGCCAC | -0.0312 |
| GATCTATA | 0.0258 |
| AGTTAGCC | 0.0439 |
| CAAACCCG | 0.00044 |
| TGGTCGAA | -0.184 |
| AGTGAACA | 0.124 |
| TAGAAATA | 0.126 |
| GTTGTTGA | 0.0302 |
| CGCTTTAG | 0.0283 |

| Sequence | PBM E-score |
| --- | --- |
| GATTTGTA | 0.148 |
| AGAATGCC | -0.21 |
| AATATGCG | 0.101 |
| AAGCCCTG | 0.132 |
| AATTTTGC | -0.173 |
| GAAATGAC | 0.249 |
| GCAGGACC | -0.0329 |
| GCCGGAGC | -0.311 |
| CCCATTCG | 0.0901 |
| GTTTCCGA | 0.17 |
| CCACTATA | 0.145 |
| CGCTGGCA | 0.0236 |
| AGGGATTC | 0.144 |
| CAGCATCG | -0.248 |
| CCATATGC | 0.119 |
| CCCCATAA | -0.0122 |
| CCTATTAG | 0.00413 |
| ATCTGAGG | 0.0579 |
| GAATTGTC | 0.0138 |
| CGACCCAA | 0.116 |
| ACGTTCTC | 0.0438 |
| AGCAGAGG | -0.209 |

| Sequence | PBM E-score |
| --- | --- |
| CTCCCGCC | -0.168 |
| CGCTTCAC | -0.0485 |
| GGGGAACA | -0.173 |
| ATACCCGA | 0.13 |
| ACTCTTGC | 0.071 |
| AGAGTAGG | 0.146 |
| AGGGTCCA | 0.439 |
| ATGATAGG | -0.00644 |
| AGTCAAAT | -0.0216 |
| GCATACGC | -0.0673 |
| AGCAGTAA | -0.0472 |
| CAGAGCGA | -0.0967 |
| GTGGTTTA | -0.0326 |
| TTATTCAA | 0.029 |
| AGGGGCGA | 0.0282 |
| AACCCTCG | 0.0878 |
| GCGCGCCA | 0.199 |
| ACATCTAA | -0.0262 |
| CCTCGCAA | -0.00471 |
| CTCCGGAG | 0.052 |
| GACTTAGA | -0.269 |
| ACATTGAG | -0.0472 |

| Sequence | PBM E-score |
| --- | --- |
| CAACAAAA | 0.0193 |
| TCCGCGGA | -0.0226 |
| CACCCTTC | -0.047 |
| TTACATAA | 0.0945 |
| AGGAAACG | -0.0446 |
| TGAGGCAA | 0.0145 |
| CCCGTAAC | -0.0688 |
| ACTCTATG | 0.056 |
| ACGGTCAG | -0.247 |
| ACTGTGAA | 0.0807 |
| ACTCGATC | 0.0285 |
| GGTGAGAA | -0.0568 |
| CACTTGCA | 0.0298 |
| CAAGGCGA | -0.0697 |
| TCCAGAAA | 0.0185 |
| CAGTTACG | -0.118 |
| CTAAGTGA | -0.00253 |
| ATGCTATC | 0.0323 |
| CCTAGGCC | -0.0804 |
| CAAAGGGG | 0.0673 |
| AGATTCAG | 0.00389 |
| ACTCTCCT | -0.0647 |

| Sequence | PBM E-score |
| --- | --- |
| CGGAGTGA | -0.00536 |
| AGCCAGCG | -0.0673 |
| ACTCTCTA | -0.02 |
| CAAAGATC | 0.0537 |
| AATGTCAG | -0.00665 |
| GCCGACGC | 0.106 |
| ACCGGCAA | -0.105 |
| CAGATGAA | 0.026 |
| AACAGCCG | -0.0322 |
| GACGACAC | -0.0162 |
| ACAGCATA | 0.0336 |
| AGTTTACC | 0.0272 |
| CTTTATCA | -0.0902 |
| GCAGCGCA | -0.14 |
| CACAACTC | 0.161 |
| ATGCATCA | 0.229 |
| AAACGCCC | 0.075 |
| GCATCTCA | 0.0106 |
| CAAACAAG | 0.103 |
| ATACAAGG | 0.178 |
| AATGTGTA | -0.221 |

Look-ups from above.
AGATTCAG – PBM E-score: 0.00389
GCCGACGC – PBM E-score: 0.106
AGTTTACC – PBM E-score: 0.0272
CCCAGGCG – PBM E-score: -0.0427
CGCTTCTC – PBM E-score: -0.102
AATGTCAG – PBM E-score: -0.00665
